Patent US20070207155A1
No constants are given. Whether binding was seen depends on the method and setting. Some results given as binding are weak or reduced against the parent protein; the word gives no strength.

Protein sequences, listed by entry. Tags and fused reporters are not part of them. Lines headed by an entry give the natural chain unless they say otherwise; changes in a name come on top. Chains listed by the source or under a name are the forms on record and can include a tag or linker. Residues count along the entry.
human platelet membrane glycoprotein VI (GPVI) (Q9HCN6, residues 21-339): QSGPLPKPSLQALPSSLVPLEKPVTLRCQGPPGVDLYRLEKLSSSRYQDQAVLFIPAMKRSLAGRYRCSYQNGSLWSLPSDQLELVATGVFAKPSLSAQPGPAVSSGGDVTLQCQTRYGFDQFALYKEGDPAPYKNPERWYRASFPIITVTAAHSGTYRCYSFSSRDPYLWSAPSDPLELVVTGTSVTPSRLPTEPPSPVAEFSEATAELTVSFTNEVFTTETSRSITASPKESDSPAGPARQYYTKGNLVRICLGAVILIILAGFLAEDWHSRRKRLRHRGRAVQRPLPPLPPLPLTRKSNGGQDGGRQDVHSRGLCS
recombinant soluble GPVI (ectodomain of human GPVI, residues 22-219, with V5 and His×6 tags) (Q9HCN6, form named): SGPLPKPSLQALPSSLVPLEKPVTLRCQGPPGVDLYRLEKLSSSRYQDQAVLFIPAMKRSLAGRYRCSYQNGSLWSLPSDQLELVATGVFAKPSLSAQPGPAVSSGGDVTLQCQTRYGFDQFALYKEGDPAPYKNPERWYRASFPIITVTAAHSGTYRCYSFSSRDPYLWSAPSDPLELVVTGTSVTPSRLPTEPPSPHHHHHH

Assays:
[1] = target: human platelet membrane glycoprotein VI (GPVI) (human) (UniProt Q9HCN6); assay: Western blot of human platelet lysate, biotinylated convulxin
[2] = target: recombinant soluble GPVI (ectodomain of human GPVI, residues 22-219, with V5 and His×6 tags) (human) (UniProt Q9HCN6); assay: Western blot and ELISA
[3] = target: human platelet membrane glycoprotein VI (GPVI) (human) (UniProt Q9HCN6); assay: FACS on CHO cells stably expressing human GPVI and FcRγ

Measured: binding

B1: convulxin (ligand)
chain 1: GLHCPSDWYYYDQHCYRIFNEEMNWEDAEWFCTKQAKGAHLVSIKSAKEADFVAWMVTQNIEESFSHVSIGLRVQNKEKQCSTKWSDGSSVSYDNLLDLYITKCSLLKKETGFRKWFVASCIGKIPFVCKFPPQC
chain 2: GFCCPSHWSSYDRYCYKVFKQEMTWADAEKFCTQQHTGSHLVSFHSTEEVDFVVKMTHQSLKSTFFWIGANNIWNKCNWQWSDGTKPEYKEWHEEFECLISRTFDNQWLSAPCSDTYSFVCKFEA
modifications: biotinylated (Western blot, ELISA) or FITC-labeled (FACS); sites not stated
binds: [1] | [2] | [3]
